Results published in patent publication US20080220446A1, “Method for Detecting and/or Removing Protein and/or Peptide Comprising a Cross-Beta Structure From an Aqueous Solution Comprising a Protein” (priority 2005, published 2008).
No constants are given. Whether binding was seen depends on the method and setting. Some results given as binding are weak or reduced against the parent protein; the word gives no strength. Tags and fused reporters may be left off the sequences shown.

The chains behind the UniProt entries cited, without tags or fusion partners. Residues count along the entry.
UniProt P01012, residues 2-386: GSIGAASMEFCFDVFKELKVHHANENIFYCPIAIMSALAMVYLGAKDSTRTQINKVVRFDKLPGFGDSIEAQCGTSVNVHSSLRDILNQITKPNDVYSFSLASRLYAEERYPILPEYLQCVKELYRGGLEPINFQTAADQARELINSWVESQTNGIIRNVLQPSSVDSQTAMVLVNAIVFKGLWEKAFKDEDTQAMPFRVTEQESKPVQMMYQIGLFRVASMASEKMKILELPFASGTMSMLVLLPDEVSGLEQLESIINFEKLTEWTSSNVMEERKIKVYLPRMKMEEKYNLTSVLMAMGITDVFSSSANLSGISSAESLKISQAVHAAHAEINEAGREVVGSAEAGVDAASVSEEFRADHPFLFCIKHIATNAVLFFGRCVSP

Columns and labels:
[1] = target: heat-denatured ovalbumin (dOVA) (UniProt P01012); experiment: ELISA, coated protein, dilution series of tPA F-EGF
[2] = target: native ovalbumin (nOVA) (UniProt P01012); experiment: as above

binding [1]: binds | binding [2]: binds
B1: human tissue-type plasminogen activator finger EGF (tPA F-EGF) fragment with carboxy-terminal FLAG-tag-His-tag (protein, UniProt P00750 36-122, looked up, not shown: small tags and cut ends)
chain: SYQVICRDEKTQMIYQQHQSWLRPVLRSNRVEYCWCNSGRAQCHSVPVKSCSEPRCFNGGTCQQALYFSDFVCQCPEGFAGKCCEID
